Reference: PMC5915565
No constants are given. Whether binding was seen depends on the method and setting. A result given as binding can be weak or reduced; the word gives no strength.

By UniProt entry, the sequences of proteins in these tests, tags left out. Where a name states a change or a piece, a line headed by the entry shows the natural chain unless it says otherwise.
UniProt F4KAZ9: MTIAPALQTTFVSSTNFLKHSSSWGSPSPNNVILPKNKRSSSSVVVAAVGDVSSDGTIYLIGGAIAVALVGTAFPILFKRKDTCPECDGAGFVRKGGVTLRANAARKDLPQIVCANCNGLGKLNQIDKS
UniProt Q9FH02: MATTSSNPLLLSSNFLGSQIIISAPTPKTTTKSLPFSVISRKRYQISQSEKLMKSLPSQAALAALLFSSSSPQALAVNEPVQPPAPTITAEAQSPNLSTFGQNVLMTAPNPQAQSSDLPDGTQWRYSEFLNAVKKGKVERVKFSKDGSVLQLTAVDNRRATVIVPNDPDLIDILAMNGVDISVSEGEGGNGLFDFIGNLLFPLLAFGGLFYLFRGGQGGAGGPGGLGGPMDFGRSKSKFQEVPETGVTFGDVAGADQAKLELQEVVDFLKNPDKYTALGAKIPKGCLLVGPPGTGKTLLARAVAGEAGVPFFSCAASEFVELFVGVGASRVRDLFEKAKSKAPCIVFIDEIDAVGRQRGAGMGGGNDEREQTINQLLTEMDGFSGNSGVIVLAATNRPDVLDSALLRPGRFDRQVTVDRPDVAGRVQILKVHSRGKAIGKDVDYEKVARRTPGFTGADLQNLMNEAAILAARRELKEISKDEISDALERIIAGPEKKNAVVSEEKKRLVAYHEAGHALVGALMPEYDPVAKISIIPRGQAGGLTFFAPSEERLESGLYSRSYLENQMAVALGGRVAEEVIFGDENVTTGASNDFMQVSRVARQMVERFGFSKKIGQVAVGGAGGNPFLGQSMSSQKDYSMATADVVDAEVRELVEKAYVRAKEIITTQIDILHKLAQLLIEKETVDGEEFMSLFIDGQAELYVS

Molecular target: GST-FIP fusion (Arabidopsis thaliana) (UniProt F4KAZ9)
Assay: pull-down; GST-FIP with purified FtsH5 (1 μg) and agarose (GST) beads, 4 h on ice; 50 mM Tris-HCl, 200 mM NaCl, 1 mM EDTA, 1% Nonidet P-40, 1 mM DTT, 10 mM MgCl2, pH 8.0; 5 washes; Western blot with an anti-FtsH5 antibody; both purified

“recombinant FtsH5 fusion protein, nickel resin-purified (from UniProt Q9FH02) (enzyme)” was tested, and the binding was “binds”.
